Measured values reported in the supplement of paper PMC10470496.
Structures can show the parent of a compound that is named as a salt. This is one part of the list. Repeats are few or missing, and single values can be far off.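 The strains were three CDC resistance-bank clinical C. auris isolates from clades III, IV and I, cultured in RPMI-1640 at 35°C. Growth was background-corrected OD600 versus vehicle-only wells on the same plate. A hit needed >50% inhibition in two or more strains plus a plate-corrected B-score exceeding 0.1.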

Assays:
Test in all cases: growth relative to vehicle control (OD600 ratio) (fraction); higher = less inhibition
Settings in all cases: 24 h
[1] = system: C. auris AR-384
[2] = system: C. auris AR-386
[3] = system: C. auris AR-387

CNC(=C[N+](=O)[O-])NCCSCc1csc(CN(C)C)n1 [Nizatidine]
growth ([1]; 1 µM): 0.96 | growth ([1]; 10 µM): 1.09 | growth ([2]; 1 µM): 1.25 | growth ([2]; 10 µM): 0.95 | growth ([3]; 1 µM): 1.16 | growth ([3]; 10 µM): 0.99

COc1cc(Nc2c(C#N)cnc3cc(OCCCN4CCN(C)CC4)c(OC)cc23)c(Cl)cc1Cl [Bosutinib (SKI-606)]
growth ([1]; 1 µM): 0.86 | growth ([1]; 10 µM): 0.66 | growth ([2]; 1 µM): 0.59 | growth ([2]; 10 µM): 0.97 | growth ([3]; 1 µM): 1.13 | growth ([3]; 10 µM): 0.89

COc1ccc(C(=O)NCc2ccc(OCCN(C)C)cc2)cc1OC [Itopride hydrochloride]
growth ([1]; 1 µM): 1.22 | growth ([1]; 10 µM): 1.02 | growth ([2]; 1 µM): 1.43 | growth ([2]; 10 µM): 1.33 | growth ([3]; 1 µM): 1.19 | growth ([3]; 10 µM): 1.17

CC(C)(C)NC(=O)[C@H]1CC[C@H]2[C@@H]3CC[C@H]4NC(=O)C=C[C@]4(C)[C@H]3CC[C@]12C [Finasteride]
growth ([1]; 1 µM): 1.15 | growth ([1]; 10 µM): 0.89 | growth ([2]; 1 µM): 1.06 | growth ([2]; 10 µM): 1.16 | growth ([3]; 1 µM): 1.07 | growth ([3]; 10 µM): 1.08

CC12CC3CC(C)(C1)CC(N)(C3)C2 [Memantine HCl]
growth ([1]; 1 µM): 0.84 | growth ([1]; 10 µM): 0.84 | growth ([2]; 1 µM): 0.83 | growth ([2]; 10 µM): 0.81 | growth ([3]; 1 µM): 1.05 | growth ([3]; 10 µM): 0.93

Cc1ccc(Nc2nccc(N(C)c3ccc4c(C)n(C)nc4c3)n2)cc1S(N)(=O)=O [Pazopanib]
growth ([1]; 1 µM): 1.3 | growth ([1]; 10 µM): 1.34 | growth ([2]; 1 µM): 1.1 | growth ([2]; 10 µM): 0.98 | growth ([3]; 1 µM): 0.84 | growth ([3]; 10 µM): 1.1

Nc1nc2[nH]cc(CCc3ccc(C(=O)N[C@@H](CCC(=O)O)C(=O)O)cc3)c2c(=O)[nH]1 [Pemetrexed]
growth ([1]; 1 µM): 1.08 | growth ([1]; 10 µM): 1.32 | growth ([2]; 1 µM): 0.95 | growth ([2]; 10 µM): 1.28 | growth ([3]; 1 µM): 1 | growth ([3]; 10 µM): 1.18

Cn1nnnc1SCC1=C(C(=O)O)N2C(=O)[C@@H](NC(=O)[C@H](OC=O)c3ccccc3)[C@H]2SC1 [Cefamandole nafate]
growth ([1]; 1 µM): 0.79 | growth ([1]; 10 µM): 0.96 | growth ([2]; 1 µM): 1.08 | growth ([2]; 10 µM): 1.24 | growth ([3]; 1 µM): 1.1 | growth ([3]; 10 µM): 1.16

CS(=O)(=O)OCCCCOS(C)(=O)=O [Busulfan]
growth ([1]; 1 µM): 1.02 | growth ([1]; 10 µM): 0.65 | growth ([2]; 1 µM): 1.02 | growth ([2]; 10 µM): 1.13 | growth ([3]; 1 µM): 1.01 | growth ([3]; 10 µM): 0.86

O=C(O)c1cc(=O)c2ccccc2o1 [Chromocarb]
growth ([1]; 1 µM): 0.84 | growth ([1]; 10 µM): 0.66 | growth ([2]; 1 µM): 0.84 | growth ([2]; 10 µM): 0.57 | growth ([3]; 1 µM): 0.56 | growth ([3]; 10 µM): 0.56

C[C@]12CC[C@@H]3c4ccc(OC(=O)c5ccccc5)cc4CC[C@H]3[C@@H]1CC[C@@H]2O [Estradiol Benzoate]
growth ([1]; 1 µM): 1.18 | growth ([1]; 10 µM): 0.95 | growth ([2]; 1 µM): 0.94 | growth ([2]; 10 µM): 1.05 | growth ([3]; 1 µM): 1.13 | growth ([3]; 10 µM): 1.21

NC(=O)N1CCC(CC(=O)N2CCC([C@H]3c4ncc(Br)cc4CCc4cc(Cl)cc(Br)c43)CC2)CC1 [Lonafarnib]
growth ([1]; 1 µM): 1.1 | growth ([1]; 10 µM): 0.89 | growth ([2]; 1 µM): 0.95 | growth ([2]; 10 µM): 0.76 | growth ([3]; 1 µM): 0.95 | growth ([3]; 10 µM): 1.11

C[C@H](CCC(=O)O)[C@H]1CC[C@H]2[C@@H]3CC[C@@H]4C[C@H](O)CC[C@]4(C)[C@H]3CC[C@]12C [Lithocholic acid]
growth ([1]; 1 µM): 0.82 | growth ([1]; 10 µM): 0.95 | growth ([2]; 1 µM): 1.29 | growth ([2]; 10 µM): 0.75 | growth ([3]; 1 µM): 0.63 | growth ([3]; 10 µM): 0.84

CCN(c1cc(-c2ccc(CN3CCOCC3)cc2)cc(C(=O)NCc2c(C)cc(C)[nH]c2=O)c1C)C1CCOCC1 [Tazemetostat (EPZ-6438)]
growth ([1]; 1 µM): 1.18 | growth ([1]; 10 µM): 1.38 | growth ([2]; 1 µM): 1.31 | growth ([2]; 10 µM): 1.22 | growth ([3]; 1 µM): 0.95 | growth ([3]; 10 µM): 1.43

COc1nc(C)nc(Cl)c1NC1=NCCN1 [Moxonidine]
growth ([1]; 1 µM): 1.08 | growth ([1]; 10 µM): 0.87 | growth ([2]; 1 µM): 0.91 | growth ([2]; 10 µM): 0.83 | growth ([3]; 1 µM): 0.98 | growth ([3]; 10 µM): 1

CC1(C)S[C@@H]2[C@H](NC(=O)[C@H](NC(=O)N3CCN(S(C)(=O)=O)C3=O)c3ccccc3)C(=O)N2[C@H]1C(=O)O [Mezlocillin Sodium]
growth ([1]; 1 µM): 0.93 | growth ([1]; 10 µM): 0.95 | growth ([2]; 1 µM): 0.96 | growth ([2]; 10 µM): 1.1 | growth ([3]; 1 µM): 0.85 | growth ([3]; 10 µM): 1.13

CCCCOc1cc(C(=O)OCCN(CC)CC)ccc1N [Oxybuprocaine HCl]
growth ([1]; 1 µM): 1.2 | growth ([1]; 10 µM): 1.36 | growth ([2]; 1 µM): 1.46 | growth ([2]; 10 µM): 1.09 | growth ([3]; 1 µM): 1.15 | growth ([3]; 10 µM): 0.98

O=C(C[S+]([O-])Cc1ccco1)NC/C=C\COc1cc(CN2CCCCC2)ccn1 (stereo not given) [Lafutidine]
growth ([1]; 1 µM): 1.05 | growth ([1]; 10 µM): 1.01 | growth ([2]; 1 µM): 0.86 | growth ([2]; 10 µM): 0.98 | growth ([3]; 1 µM): 0.91 | growth ([3]; 10 µM): 0.62

CN(C)c1ccc2nc3ccc(=[N+](C)C)cc-3sc2c1 [Methylene Blue]
growth ([1]; 1 µM): 0.9 | growth ([1]; 10 µM): 1.22 | growth ([2]; 1 µM): 0.61 | growth ([2]; 10 µM): 0.85 | growth ([3]; 1 µM): 0.67 | growth ([3]; 10 µM): 1.08

S=C(NCc1ccc2c(c1)OCO2)N1CCN(c2ncnc3c2oc2ccccc23)CC1 [Amuvatinib (MP-470)]
growth ([1]; 1 µM): 0.77 | growth ([1]; 10 µM): 0.51 | growth ([2]; 1 µM): 0.51 | growth ([2]; 10 µM): 1.02 | growth ([3]; 1 µM): 0.69 | growth ([3]; 10 µM): 0.72

CCCCCCNC(=O)n1cc(F)c(=O)[nH]c1=O [Carmofur]
growth ([1]; 1 µM): 0.9 | growth ([1]; 10 µM): 1.45 | growth ([2]; 1 µM): 1.31 | growth ([2]; 10 µM): 0.93 | growth ([3]; 1 µM): 1.1 | growth ([3]; 10 µM): 1.05

CN(C)Cc1ccc(S(=O)(=O)n2ccc(/C=C/C(=O)NO)c2)cc1 [Resminostat]
growth ([1]; 1 µM): 0.97 | growth ([1]; 10 µM): 0.94 | growth ([2]; 1 µM): 0.62 | growth ([2]; 10 µM): 1.27 | growth ([3]; 1 µM): 1.05 | growth ([3]; 10 µM): 1.12

CC(C)(C)C(=O)Oc1ccc(S(=O)(=O)Nc2ccccc2C(=O)NCC(=O)O)cc1 [Sivelestat sodium tetrahydrate]
growth ([1]; 1 µM): 0.81 | growth ([1]; 10 µM): 0.76 | growth ([2]; 1 µM): 0.86 | growth ([2]; 10 µM): 0.66 | growth ([3]; 1 µM): 1.03 | growth ([3]; 10 µM): 0.83

CC(C(=O)O)c1ccc2c(c1)[nH]c1ccc(Cl)cc12 (stereo not given) [Carprofen]
growth ([1]; 1 µM): 0.75 | growth ([1]; 10 µM): 0.74 | growth ([2]; 1 µM): 0.78 | growth ([2]; 10 µM): 0.8 | growth ([3]; 1 µM): 0.75 | growth ([3]; 10 µM): 0.69

N[C@@H](Cc1c[nH]c2ccc(O)cc12)C(=O)O [5-hydroxytryptophan (5-HTP)]
growth ([1]; 1 µM): 1.31 | growth ([1]; 10 µM): 1.39 | growth ([2]; 1 µM): 0.8 | growth ([2]; 10 µM): 1.29 | growth ([3]; 1 µM): 0.79 | growth ([3]; 10 µM): 1.03

CC1CC(OC(=O)C(O)c2ccccc2)CC(C)(C)C1 (stereo not given) [Cyclandelate]
growth ([1]; 1 µM): 0.84 | growth ([1]; 10 µM): 0.74 | growth ([2]; 1 µM): 0.88 | growth ([2]; 10 µM): 0.39 | growth ([3]; 1 µM): 0.59 | growth ([3]; 10 µM): 0.73

Cc1ccc(C)c(OCCCC(C)(C)C(=O)O)c1 [Gemfibrozil]
growth ([1]; 1 µM): 1.24 | growth ([1]; 10 µM): 0.91 | growth ([2]; 1 µM): 0.89 | growth ([2]; 10 µM): 1.32 | growth ([3]; 1 µM): 0.88 | growth ([3]; 10 µM): 1.03

O=c1ccn([C@@H]2O[C@H](CO)[C@@H](O)[C@H]2O)c(=O)[nH]1 [Uridine]
growth ([1]; 1 µM): 0.96 | growth ([1]; 10 µM): 0.89 | growth ([2]; 1 µM): 1 | growth ([2]; 10 µM): 0.77 | growth ([3]; 1 µM): 0.65 | growth ([3]; 10 µM): 0.85

CC(=O)OCC[N+](C)(C)C [Acetylcholine iodide]
growth ([1]; 1 µM): 0.73 | growth ([1]; 10 µM): 0.73 | growth ([2]; 1 µM): 0.63 | growth ([2]; 10 µM): 0.97 | growth ([3]; 1 µM): 0.7 | growth ([3]; 10 µM): 1.13

COC(=O)C1=C(C)NC(C)=C(C(=O)OC(C)C)C1c1cccc2nonc12 (stereo not given) [Isradipine]
growth ([1]; 1 µM): 0.91 | growth ([1]; 10 µM): 0.88 | growth ([2]; 1 µM): 0.74 | growth ([2]; 10 µM): 0.75 | growth ([3]; 1 µM): 0.73 | growth ([3]; 10 µM): 0.74
